PubChem BioAssay AID894 (National Center for Advancing Translational Sciences (NCATS), 2007)
Out of some 150,000 compounds screened, about 6,500 (4.3%) were called active. These results got no clear call from the source, so the numbers are uncertain. The call rests on the fitted dose curve; in most records, active means well fitted inhibition curve with a large enough effect (not every such curve was filed as active); inconclusive means small, poorly fitted or top-dose-only effect, or another doubt; inactive means no such curve, though single readings can be large or run the other way.

By UniProt entry, the sequences of proteins in these tests, tags left out.
UniProt P15428, whole entry: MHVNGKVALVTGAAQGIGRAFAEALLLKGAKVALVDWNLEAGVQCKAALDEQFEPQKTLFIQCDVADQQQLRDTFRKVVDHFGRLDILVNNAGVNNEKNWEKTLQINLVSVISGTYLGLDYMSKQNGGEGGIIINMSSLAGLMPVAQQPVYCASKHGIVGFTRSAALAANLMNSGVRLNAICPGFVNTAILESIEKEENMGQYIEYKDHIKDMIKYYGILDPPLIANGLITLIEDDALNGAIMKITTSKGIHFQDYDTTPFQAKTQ

The compounds below were run against 15-hydroxyprostaglandin dehydrogenase [NAD(+)] (Homo sapiens) (UniProt P15428) (assay: qHTS Assay for Inhibitors of HPGD (15-Hydroxyprostaglandin Dehydrogenase)). Settings: purified HPGD, NADH fluorescence kinetic, PGE2 substrate.
Potency means the concentration at half of the fitted maximal effect.

Q: With Cc1ccc(NP(C)(=O)Oc2ccccc2)c(C)c1 (configuration not stated) as the compound, how does the Potency read?
A: Its Potency is inconclusive: 12.6 µM.

Q: COc1ccccc1OP(C)(=O)Nc1ccc(C)cc1 (configuration not stated) was tested. Which Potency did it give?
A: Its Potency is inconclusive: 20 µM.
